Measured values reported in doi:10.1101/2025.02.13.635953.
Like-named read-outs stand apart in the source and are kept apart here. No constants are given. Whether binding was seen depends on the method and setting. Binding seen in cells or lysates may run through a third protein. Here binding means that the protein was enriched with, or labelled near, the bait; the list need not be complete. For part of these data: A no says only that the protein was not detected with the bait.

Protein sequences, listed by entry. Tags and fused reporters are not part of them. Lines headed by an entry give the natural chain unless they say otherwise; changes in a name come on top.
UniProt Q8C0Y1: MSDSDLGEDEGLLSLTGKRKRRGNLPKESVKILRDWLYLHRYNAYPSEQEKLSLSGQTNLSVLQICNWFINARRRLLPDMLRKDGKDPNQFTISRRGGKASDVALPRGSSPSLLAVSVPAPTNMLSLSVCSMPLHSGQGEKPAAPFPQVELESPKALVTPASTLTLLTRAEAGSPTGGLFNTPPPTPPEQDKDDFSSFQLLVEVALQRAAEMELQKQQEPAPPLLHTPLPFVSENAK
UniProt Q62193: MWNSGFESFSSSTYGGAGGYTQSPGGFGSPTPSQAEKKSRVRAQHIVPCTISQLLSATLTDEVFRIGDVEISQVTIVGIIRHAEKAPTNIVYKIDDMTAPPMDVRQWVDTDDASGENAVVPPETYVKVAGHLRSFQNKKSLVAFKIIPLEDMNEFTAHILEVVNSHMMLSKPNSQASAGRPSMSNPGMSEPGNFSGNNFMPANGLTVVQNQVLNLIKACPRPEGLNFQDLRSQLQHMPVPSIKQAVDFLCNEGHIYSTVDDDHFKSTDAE
UniProt O09106: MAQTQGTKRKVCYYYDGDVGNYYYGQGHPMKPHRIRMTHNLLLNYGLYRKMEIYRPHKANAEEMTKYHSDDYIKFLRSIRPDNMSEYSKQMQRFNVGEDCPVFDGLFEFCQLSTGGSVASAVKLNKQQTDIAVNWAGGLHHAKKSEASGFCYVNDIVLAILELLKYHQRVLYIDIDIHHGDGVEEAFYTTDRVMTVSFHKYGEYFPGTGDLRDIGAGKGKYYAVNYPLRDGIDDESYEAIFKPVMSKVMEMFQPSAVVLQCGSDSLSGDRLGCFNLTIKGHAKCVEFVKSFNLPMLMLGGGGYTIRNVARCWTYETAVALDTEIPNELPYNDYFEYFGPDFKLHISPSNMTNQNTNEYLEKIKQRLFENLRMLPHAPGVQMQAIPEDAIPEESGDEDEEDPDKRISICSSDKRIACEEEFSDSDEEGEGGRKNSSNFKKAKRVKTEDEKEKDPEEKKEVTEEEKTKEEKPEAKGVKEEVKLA
UniProt P11103: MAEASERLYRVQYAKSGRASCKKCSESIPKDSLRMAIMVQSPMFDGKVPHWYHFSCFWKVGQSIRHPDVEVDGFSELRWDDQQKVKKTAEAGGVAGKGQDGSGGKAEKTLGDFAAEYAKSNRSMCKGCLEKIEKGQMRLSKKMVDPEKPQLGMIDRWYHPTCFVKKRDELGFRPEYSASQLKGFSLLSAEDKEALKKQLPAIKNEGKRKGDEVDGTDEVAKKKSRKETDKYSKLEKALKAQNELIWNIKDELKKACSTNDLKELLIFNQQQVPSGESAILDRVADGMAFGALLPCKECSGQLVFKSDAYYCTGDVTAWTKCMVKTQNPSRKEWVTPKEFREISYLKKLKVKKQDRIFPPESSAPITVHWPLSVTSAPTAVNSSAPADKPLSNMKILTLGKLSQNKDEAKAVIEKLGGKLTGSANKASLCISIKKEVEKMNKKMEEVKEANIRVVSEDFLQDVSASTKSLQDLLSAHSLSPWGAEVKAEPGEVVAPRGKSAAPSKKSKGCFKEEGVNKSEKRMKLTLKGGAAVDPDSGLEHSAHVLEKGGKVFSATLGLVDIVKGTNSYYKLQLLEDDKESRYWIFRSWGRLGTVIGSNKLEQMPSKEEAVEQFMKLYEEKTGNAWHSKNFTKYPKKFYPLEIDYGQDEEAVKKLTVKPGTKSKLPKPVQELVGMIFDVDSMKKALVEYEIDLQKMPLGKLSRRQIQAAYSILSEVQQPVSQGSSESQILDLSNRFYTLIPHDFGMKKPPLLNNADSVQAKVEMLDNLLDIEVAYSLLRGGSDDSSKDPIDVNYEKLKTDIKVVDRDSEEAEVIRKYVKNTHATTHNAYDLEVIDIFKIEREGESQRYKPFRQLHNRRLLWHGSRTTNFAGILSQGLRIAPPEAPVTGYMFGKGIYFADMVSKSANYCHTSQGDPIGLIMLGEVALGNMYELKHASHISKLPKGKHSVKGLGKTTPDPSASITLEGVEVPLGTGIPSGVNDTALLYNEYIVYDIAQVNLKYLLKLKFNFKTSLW
UniProt Q9CQ71: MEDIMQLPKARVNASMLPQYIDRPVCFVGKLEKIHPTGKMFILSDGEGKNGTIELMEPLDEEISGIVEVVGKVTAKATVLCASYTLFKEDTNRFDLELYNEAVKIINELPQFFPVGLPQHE
UniProt Q8VEE4: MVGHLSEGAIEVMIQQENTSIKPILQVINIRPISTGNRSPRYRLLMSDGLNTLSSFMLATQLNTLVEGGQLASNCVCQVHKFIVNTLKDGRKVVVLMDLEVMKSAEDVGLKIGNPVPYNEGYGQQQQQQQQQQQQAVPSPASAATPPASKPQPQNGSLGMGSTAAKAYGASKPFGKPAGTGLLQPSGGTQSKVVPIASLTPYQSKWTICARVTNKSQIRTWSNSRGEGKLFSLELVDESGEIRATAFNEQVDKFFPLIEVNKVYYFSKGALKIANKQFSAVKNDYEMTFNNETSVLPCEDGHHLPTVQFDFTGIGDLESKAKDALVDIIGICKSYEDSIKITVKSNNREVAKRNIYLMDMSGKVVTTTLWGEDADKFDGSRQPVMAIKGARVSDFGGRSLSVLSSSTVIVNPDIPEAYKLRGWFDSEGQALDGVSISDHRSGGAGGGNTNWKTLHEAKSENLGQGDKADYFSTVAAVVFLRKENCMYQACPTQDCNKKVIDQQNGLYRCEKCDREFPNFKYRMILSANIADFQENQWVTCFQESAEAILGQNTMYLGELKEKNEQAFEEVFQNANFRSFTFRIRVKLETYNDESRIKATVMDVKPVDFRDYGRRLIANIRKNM
UniProt O54962: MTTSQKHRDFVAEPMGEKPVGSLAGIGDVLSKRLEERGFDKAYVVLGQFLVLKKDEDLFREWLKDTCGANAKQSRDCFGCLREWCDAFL
UniProt P70288: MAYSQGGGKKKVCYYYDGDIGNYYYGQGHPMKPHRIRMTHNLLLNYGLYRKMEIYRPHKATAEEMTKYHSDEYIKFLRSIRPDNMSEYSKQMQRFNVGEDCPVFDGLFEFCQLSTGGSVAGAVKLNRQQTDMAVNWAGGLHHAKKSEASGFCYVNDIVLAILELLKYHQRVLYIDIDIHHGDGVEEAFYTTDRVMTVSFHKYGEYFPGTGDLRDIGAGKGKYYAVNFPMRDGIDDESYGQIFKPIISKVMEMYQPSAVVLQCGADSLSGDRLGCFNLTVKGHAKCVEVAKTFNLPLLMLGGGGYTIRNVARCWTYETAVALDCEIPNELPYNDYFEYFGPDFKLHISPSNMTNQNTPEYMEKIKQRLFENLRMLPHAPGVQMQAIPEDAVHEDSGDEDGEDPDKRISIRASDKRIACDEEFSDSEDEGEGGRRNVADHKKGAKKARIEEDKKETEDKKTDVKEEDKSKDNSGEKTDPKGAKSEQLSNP

B1: ARID4B (protein, UniProt A2CG63 1-1314)
chain: MKALDEPPYLTVGTDVSAKYRGAFCEAKIKTAKRLVKVKVTFRHDSSTVEVQDDHIKGPLKVGAIVEVKNLDGAYQEAVINKLTDASWYTVVFDDGDEKTLRRSSLCLKGERHFAESETLDQLPLTNPEHFGTPVIGKKTNRGRRSNHIPEEESSSSSSDDDEEERKQTDELLGKVVCVDYVSLEKKKAMWFPALVVCPDCSDEIAVKKDNILVRSFKDGKFTSVPRKDVHEITSDTVPKPDAVLKQAFDQALEFHKSRAIPANWKTELKEDSSSSEAEEEEEEEDDEKEKEDNSSEEEEEIEPFPEERENFLQQLYKFMEDRGTPINKRPVLGYRNLNLFKLFRLVHKLGGFDNIESGAVWKQVYQDLGIPVLNSAAGYNVKCAYKKYLYGFEEYCRSANIDFQMALPEKVLNKPCKDCENKEVKVKEESETEIKEVNVEDSKNVMPKEETPAEDESERKENIKPSLGSKKSLLECIPAQSDEEKEAHITKLEENENLEDKDGGRARTEEAFSTEVDGEEEQARSGDETNKEEDEDDEEIEEEEEEDEEEDEDEDDDDNNEEEEFECYPPGMKVQVRYGRGKNQKMYEASIKDSDVEGGEALYLVHYCGWNVRYDEWIKADKIVRPADKNVPKIKHRKKIKNKLDKEKDRDEKYSPKNCKLRRLSKSPFQSNPSPEMVSKLDLADAKNSDTAHIKSIEITSILNGLQASESSAEDSEQEDERCTQDVDNIGKDESKVEHSTHSRNELISKEEQSSPSLLEENKVHTDLVIAKTVSKSPERLRKDMEAISEDTDFEEEDEITKKRKDVKKDTTDKALKPQTKRGKRRYCSADECLQTGSPGKKEDRTKSKEPLCTENSSNSSSDEDEEEKSKAKMTPTKKYNGLEEKRKSLRTTSFYSGFSEVAEKRIKLLNNSDERLQNNRAKDRKDVWSSIQGQWPKKTLKELFSDSDTEAAASPPHPAPDEGAVEESLQTVAEEESCSPIMELEKPLPASVDNKPIEEKPLEVSDRKTEFPSSGSNSVLNTPPTTPESPSSVTITEASQQQSSVTVSVPLPPNQEEVRSIKSETDSTIEVDSVVGELQDLQSEGNSSPAGFDASVSSSSSNQPEPDNPEKACTGQKRVKDTQGVGSSSKKQKRSHKATVVNNKKKGKGTNSSDSEELSAGESVTKTQTIKSVPTGMKTHNSKSPARVQSPGKGGRNGDKDPDLKEPSNRLPKVYKWSFQTSDLENMTSAERISILQEKLQEIRKHYLSLKSEVASIDRRRKRLKKKERESAATSSSSSSPSSSSITAAVMLTLAEPSMSSASQNGMSVECR

How the values were obtained:
Test in all cases: affinity purification with mass spectrometry
[1] = biological target: TGFB-Induced Homeobox Factor 2 (TGIF2), longer isoform with a retained intron (TGIF2IR), FLAG-tagged (UniProt Q8C0Y1)
[2] = biological target: TGFB-Induced Homeobox Factor 2 (TGIF2), longer isoform with a retained intron (TGIF2IR), FLAG-tagged (UniProt Q8C0Y1); remark: listed apart in the source
[3] = biological target: TGIF2IR with a point mutation within the SIN3A-interacting domain (A210V), TGIF2IRmut (UniProt Q8C0Y1)

binding [1] | binding [2] | binding [3] | Molecule
binds | – | – | RPA2 (from UniProt Q62193 1-270)
binds | – | – | HDAC1 (from UniProt O09106 1-482)
binds | – | – | PARP1 (from UniProt P11103 1-1013)
binds | – | – | RPA3 (from UniProt Q9CQ71 1-121)
binds | – | – | RPA1 (from UniProt Q8VEE4 1-623)
binds | – | – | BANF1 (from UniProt O54962 1-89)
binds | – | – | HDAC2 (from UniProt P70288 1-488)
– | binds | no binding | B1
